No constants are given. Whether binding was seen depends on the method and setting. Some results given as binding are weak or reduced against the parent protein; the word gives no strength.
Assays:
[1] = target: T1, endothelial cell selective adhesion molecules (ESAM) (UniProt Q96AP7); assay: pull down, LC-MS/MS and western blot
T1 sequence (looked up): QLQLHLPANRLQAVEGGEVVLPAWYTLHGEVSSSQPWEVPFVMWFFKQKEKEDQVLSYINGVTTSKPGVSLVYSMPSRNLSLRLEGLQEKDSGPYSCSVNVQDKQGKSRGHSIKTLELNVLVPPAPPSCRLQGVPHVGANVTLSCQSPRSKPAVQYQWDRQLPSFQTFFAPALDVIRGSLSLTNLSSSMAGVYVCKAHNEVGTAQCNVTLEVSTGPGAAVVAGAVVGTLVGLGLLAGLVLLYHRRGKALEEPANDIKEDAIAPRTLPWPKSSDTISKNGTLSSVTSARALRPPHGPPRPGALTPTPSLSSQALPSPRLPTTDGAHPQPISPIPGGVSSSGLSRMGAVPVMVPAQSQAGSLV

[2] = target: T1, endothelial cell selective adhesion molecules (ESAM); assay: pull down, LC-MS/MS and western blot (FIG. 35)
[3] = target: T1, endothelial cell selective adhesion molecules (ESAM); assay: summary sentence of Example 5; pull down (FIG. 35)

binding [1]: binds
binding [2]: binds
binding [3]: binds
Binder: CKSGGAWCGFDPHGCCGNCGCLVGFCYGTGC (four native disulfide bonds: Cys I-IV, Cys II-VI, Cys III-VII and Cys V-VIII) [Ginsentide TP1]

From patent US20200277343A1
